Assay results: patent US20250375502A1, “COMBINATION OF IL-12 AND OX40L FOR CANCER IMMUNOTHERAPY” (WUHAN HOUXIAN BIOPHARMACEUTICAL CO. LTD., priority 2022, published 2025)
At least one compound was matched to its structure with a doubt left.

Tested on: CT-26
Assay: Screening of single or combination mRNA for anti-tumor effects, CT-26 colon cancer mouse model, intratumoral injection
Format: in vivo, mice

## CCOCc1nc2c(N)nc3ccccc3c2n1CC(C)(C)O [R848, Resiquimod]
10 μg of each mRNA per mouse in LNP, intratumoral at day 8, tumor volumes at day 18, FIG. 1
  anti-tumor effect (tumor volumes): moderate anti-tumor effect
FIG. 1
  effect on other agents' anti-tumor effects when used in combinations: decreased other agents' anti-tumor effects
